The source of these data is publication PMC8980813.

Chains of the proteins cited; added tags and fusions are not shown. Lines headed by an entry give the natural chain unless they say otherwise; changes in a name come on top. Residues count along the entry.
UniProt Q9H825: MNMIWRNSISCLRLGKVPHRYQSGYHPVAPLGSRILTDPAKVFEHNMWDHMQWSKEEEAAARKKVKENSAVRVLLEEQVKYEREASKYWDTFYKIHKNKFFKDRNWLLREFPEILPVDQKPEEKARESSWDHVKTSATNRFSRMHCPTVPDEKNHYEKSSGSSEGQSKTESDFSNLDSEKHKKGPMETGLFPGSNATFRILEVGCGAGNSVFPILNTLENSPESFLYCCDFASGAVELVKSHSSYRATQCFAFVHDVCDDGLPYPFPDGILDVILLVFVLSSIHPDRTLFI
UniProt Q9NP81, residues 35-518: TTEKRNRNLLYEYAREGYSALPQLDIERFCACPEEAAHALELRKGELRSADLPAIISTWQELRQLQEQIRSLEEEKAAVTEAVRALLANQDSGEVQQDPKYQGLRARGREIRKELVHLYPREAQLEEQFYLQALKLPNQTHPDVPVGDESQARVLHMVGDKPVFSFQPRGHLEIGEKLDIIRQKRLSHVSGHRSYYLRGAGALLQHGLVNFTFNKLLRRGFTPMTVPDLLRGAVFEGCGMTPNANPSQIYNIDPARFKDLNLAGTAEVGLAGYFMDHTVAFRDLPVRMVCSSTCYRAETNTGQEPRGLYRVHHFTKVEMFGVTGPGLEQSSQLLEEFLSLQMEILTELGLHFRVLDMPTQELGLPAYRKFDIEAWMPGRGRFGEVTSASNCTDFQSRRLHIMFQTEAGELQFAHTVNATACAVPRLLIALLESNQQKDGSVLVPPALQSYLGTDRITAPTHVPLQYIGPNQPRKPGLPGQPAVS

The assay has as its target METTL8 fused to the Twin-Strep tag at the C-terminus (human) (UniProt Q9H825).

Results are given in words; binding and its absence hold for the method and conditions named. In cells and extracts the contact can be indirect. A yes stands for co-enrichment or nearness to the bait. Other partners may have been found.

Take “endogenous mitochondrial seryl-tRNA synthetase (SARS2) (from UniProt Q9NP81 35-518) (enzyme)”: the binding result is reported as “binds”.
